Results on 4 molecules are retold here after article doi:10.1101/2021.06.14.448173.

Protein sequences, listed by entry. Tags and fused reporters are not part of them. Lines headed by an entry give the natural chain unless they say otherwise; changes in a name come on top.
UniProt Q8VXZ9: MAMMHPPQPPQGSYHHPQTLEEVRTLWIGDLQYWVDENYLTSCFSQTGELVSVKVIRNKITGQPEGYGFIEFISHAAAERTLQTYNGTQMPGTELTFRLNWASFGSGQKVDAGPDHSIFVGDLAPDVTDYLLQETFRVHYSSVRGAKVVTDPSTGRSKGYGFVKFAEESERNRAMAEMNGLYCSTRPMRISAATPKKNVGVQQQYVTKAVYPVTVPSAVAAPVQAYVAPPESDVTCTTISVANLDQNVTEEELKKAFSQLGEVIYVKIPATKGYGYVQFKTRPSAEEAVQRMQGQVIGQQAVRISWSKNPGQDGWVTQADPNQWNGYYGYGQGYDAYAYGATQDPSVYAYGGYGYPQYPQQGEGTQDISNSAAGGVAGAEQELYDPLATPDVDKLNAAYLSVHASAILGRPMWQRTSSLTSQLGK

These are yes or no findings as the source states them, for the method shown. Binding can be weak; no strength is given. For some of these results: Where a sequence is shown, tags or fusion partners need not be part of it. For some of these results: In cells and extracts the contact can be indirect.

For assay [1], the target named is T1, pre-mRNA-processing factor 39a (PRP39a), GAL4 DNA binding domain fusion (Arabidopsis thaliana) (UniProt Q93ZR3).
T1 sequence: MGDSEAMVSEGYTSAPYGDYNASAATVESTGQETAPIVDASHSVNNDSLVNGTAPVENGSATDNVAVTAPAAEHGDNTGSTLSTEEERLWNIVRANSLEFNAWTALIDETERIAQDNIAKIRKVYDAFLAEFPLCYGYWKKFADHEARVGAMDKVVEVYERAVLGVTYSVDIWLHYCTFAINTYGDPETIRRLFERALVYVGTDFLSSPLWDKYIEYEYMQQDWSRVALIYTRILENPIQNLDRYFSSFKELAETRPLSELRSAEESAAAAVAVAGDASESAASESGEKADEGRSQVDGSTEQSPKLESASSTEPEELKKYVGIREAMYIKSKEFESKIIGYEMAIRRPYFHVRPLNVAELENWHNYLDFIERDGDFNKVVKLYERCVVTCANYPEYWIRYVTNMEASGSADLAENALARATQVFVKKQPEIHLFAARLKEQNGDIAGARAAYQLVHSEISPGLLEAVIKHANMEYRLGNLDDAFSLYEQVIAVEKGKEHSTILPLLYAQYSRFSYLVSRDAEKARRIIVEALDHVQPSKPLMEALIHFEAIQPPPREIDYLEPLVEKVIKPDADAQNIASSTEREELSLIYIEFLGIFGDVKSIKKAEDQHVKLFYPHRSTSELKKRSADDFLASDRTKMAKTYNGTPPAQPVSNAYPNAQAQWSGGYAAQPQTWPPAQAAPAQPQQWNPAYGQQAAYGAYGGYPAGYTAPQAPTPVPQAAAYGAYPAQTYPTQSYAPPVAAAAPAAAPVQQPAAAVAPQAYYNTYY
Nature of the assay: two-hybrid.

For assay [2], the target named is RNA BINDING PROTEIN 45d (RBP45d), GAL4 DNA binding domain fusion (Arabidopsis thaliana) (UniProt Q8VXZ9). Briefly: two-hybrid.
Assay [3] has as its target RBP45d-5xc-Myc (Arabidopsis thaliana) (UniProt Q8VXZ9). Nature of the assay: co-IP.
Assay [4] concerns the target RNA BINDING PROTEIN 45d (RBP45d), GAL4 DNA binding domain fusion (Arabidopsis thaliana), Q8VXZ9. Briefly: two-hybrid. As to conditions: remark: other sources report otherwise.

For “RNA BINDING PROTEIN 45d (RBP45d), GAL4 activation domain fusion (from UniProt Q8VXZ9)”, the binding result in assay [1] is given as “binds”.

B1: U1C, GAL4 activation domain fusion (protein, UniProt Q56XE4 1-207)
chain: MPRYYCDYCDTYLTHDSPSVRKQHNAGYKHKANVRIYYQQFEEQQTQSLIDQRIKEHLGQTGGYQQVGAVFNQHMLARPRPPMMLPPGSMPMGMRPPVLPRPMMPPQGYMPPPGVPQMMAPPGAPLPPPPQNGILRPPGMAPIPGQGGGPPGMAPIPGQGGGPPPNYNGLPPPPPYHTNPAAPPSGNFNNPNLNNPNPSAESPESNE
In the case of B1, the binding entry in assay [2] is listed as “binds”.

B2: pre-mRNA-processing factor 39a (PRP39a), endogenous (protein, UniProt Q93ZR3 1-768)
chain: MGDSEAMVSEGYTSAPYGDYNASAATVESTGQETAPIVDASHSVNNDSLVNGTAPVENGSATDNVAVTAPAAEHGDNTGSTLSTEEERLWNIVRANSLEFNAWTALIDETERIAQDNIAKIRKVYDAFLAEFPLCYGYWKKFADHEARVGAMDKVVEVYERAVLGVTYSVDIWLHYCTFAINTYGDPETIRRLFERALVYVGTDFLSSPLWDKYIEYEYMQQDWSRVALIYTRILENPIQNLDRYFSSFKELAETRPLSELRSAEESAAAAVAVAGDASESAASESGEKADEGRSQVDGSTEQSPKLESASSTEPEELKKYVGIREAMYIKSKEFESKIIGYEMAIRRPYFHVRPLNVAELENWHNYLDFIERDGDFNKVVKLYERCVVTCANYPEYWIRYVTNMEASGSADLAENALARATQVFVKKQPEIHLFAARLKEQNGDIAGARAAYQLVHSEISPGLLEAVIKHANMEYRLGNLDDAFSLYEQVIAVEKGKEHSTILPLLYAQYSRFSYLVSRDAEKARRIIVEALDHVQPSKPLMEALIHFEAIQPPPREIDYLEPLVEKVIKPDADAQNIASSTEREELSLIYIEFLGIFGDVKSIKKAEDQHVKLFYPHRSTSELKKRSADDFLASDRTKMAKTYNGTPPAQPVSNAYPNAQAQWSGGYAAQPQTWPPAQAAPAQPQQWNPAYGQQAAYGAYGGYPAGYTAPQAPTPVPQAAAYGAYPAQTYPTQSYAPPVAAAAPAAAPVQQPAAAVAPQAYYNTYY
Regarding B2, the binding entry in assay [3] is “binds”.

B3: U1-70K, GAL4 activation domain fusion, Q42404 1-427 (protein)
chain: MGDSGDPFLRNPNAAVQARAKVQNRANVLQLKLMGQSHPTGLTNNLLKLFEPRPPLEYKPPPEKRKCPPYTGMAQFVSNFAEPGDPEYAPPKPEVELPSQKRERIHKLRLEKGVEKAAEDLKKYDPNNDPNATGDPYKTLFVSRLNYESSESKIKREFESYGPIKRVHLVTDQLTNKPKGYAFIEYMHTRDMKAAYKQADGQKIDGRRVLVDVERGRTVPNWRPRRLGGGLGTSRVGGGEEIVGEQQPQGRTSQSEEPSRPREEREKSREKGKERERSRELSHEQPRERSRDRPREDKHHRDRDQGGRDRDRDSRRDRDRTRDRGDRDRRDRDRGRDRTSRDHDRDRSRKKERDYEGGEYEHEGGGRSRERDAEYRGEPEETRGYYEDDQGDTDRYSHRYDKMEEDDFRYEREYKRSKRSESREYVR
In the case of B3, in assay [4], the binding result is on record as “binds”.
